Measured values from PMC11231337.
No constants are given. Whether binding was seen depends on the method and setting. Binding calls can cover weak binding; strength is not graded here. Sequences can lack the tags named with a protein.

Target: GST-PD-L1 intracellular domain (ICD) (not stated (human or mouse cDNA cloned))
Assay: pull-down; GST pull-down with GST-tagged PD-L1 FL, ECD or ICD purified from E. coli and His-tagged PPM1B; 1 μg of each indicated protein; both purified

binding: binds
B1: His-tagged PPM1B (enzyme, UniProt O75688 1-479)
chain: MGAFLDKPKTEKHNAHGAGNGLRYGLSSMQGWRVEMEDAHTAVVGIPHGLEDWSFFAVYDGHAGSRVANYCSTHLLEHITTNEDFRAAGKSGSALELSVENVKNGIRTGFLKIDEYMRNFSDLRNGMDRSGSTAVGVMISPKHIYFINCGDSRAVLYRNGQVCFSTQDHKPCNPREKERIQNAGGSVMIQRVNGSLAVSRALGDYDYKCVDGKGPTEQLVSPEPEVYEILRAEEDEFIILACDGIWDVMSNEELCEYVKSRLEVSDDLENVCNWVVDTCLHKGSRDNMSIVLVCFSNAPKVSDEAVKKDSELDKHLESRVEEIMEKSGEEGMPDLAHVMRILSAENIPNLPPGGGLAGKRNVIEAVYSRLNPHRESDGASDEAEESGSQGKLVEALRQMRINHRGNYRQLLEEMLTSYRLAKVEGEESPAEPAATATSSNSDAGNPVTMQESHTESESGLAELDSSNEDAGTKMSGEKI
